Reference: article PMC6548983
Results are given in words; binding and its absence hold for the method and conditions named. Some results given as binding are weak or reduced against the parent protein; the word gives no strength. Where a sequence is shown, tags or fusion partners need not be part of it.

T1: TEOSINTE BRANCHED 1/CYCLOIDEA/PCF 5 (TCP5), yeast two-hybrid fusion (Arabidopsis) (UniProt Q9FME3)
T1 sequence: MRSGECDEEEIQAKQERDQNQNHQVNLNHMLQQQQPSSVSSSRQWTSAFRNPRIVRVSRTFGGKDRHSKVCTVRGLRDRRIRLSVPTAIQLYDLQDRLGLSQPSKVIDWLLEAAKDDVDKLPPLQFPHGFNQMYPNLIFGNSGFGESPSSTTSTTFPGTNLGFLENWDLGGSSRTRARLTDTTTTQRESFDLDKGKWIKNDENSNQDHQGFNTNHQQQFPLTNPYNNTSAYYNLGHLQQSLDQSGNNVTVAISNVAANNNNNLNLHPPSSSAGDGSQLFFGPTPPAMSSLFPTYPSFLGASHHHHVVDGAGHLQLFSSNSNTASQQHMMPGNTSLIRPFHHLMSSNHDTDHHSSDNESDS

T2: truncated PIF4Δ53 fused to the GAL4 DNA-binding domain (Arabidopsis) (UniProt Q8W2F3)
T2 sequence: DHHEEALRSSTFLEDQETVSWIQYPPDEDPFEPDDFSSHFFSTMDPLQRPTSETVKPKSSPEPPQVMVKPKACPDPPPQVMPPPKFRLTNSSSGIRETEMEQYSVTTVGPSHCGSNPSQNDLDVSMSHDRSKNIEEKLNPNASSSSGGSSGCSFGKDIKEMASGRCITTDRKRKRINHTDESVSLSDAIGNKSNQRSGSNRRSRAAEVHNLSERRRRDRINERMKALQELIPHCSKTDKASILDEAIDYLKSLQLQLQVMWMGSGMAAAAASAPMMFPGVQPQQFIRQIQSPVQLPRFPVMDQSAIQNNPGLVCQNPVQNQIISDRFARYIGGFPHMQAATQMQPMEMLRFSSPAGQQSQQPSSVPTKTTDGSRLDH


Tests used:
[1] = target: T1, TEOSINTE BRANCHED 1/CYCLOIDEA/PCF 5 (TCP5), yeast two-hybrid fusion (Arabidopsis); assay: two-hybrid; yeast two-hybrid of TCP5 with PIF4 homologs (Figure S2I); orientation not stated
[2] = target: T2, truncated PIF4Δ53 fused to the GAL4 DNA-binding domain (Arabidopsis); assay: two-hybrid; yeast; DBD fused to TCPs or PIF4Δ53, AD fused to PIF4 or TCPs; selection on SD-Leu-Trp-His with or without 10 mM 3-AT, dilutions of 10- and 100-fold; empty pDEST22 as negative control

| Binder | binding [1] | binding [2] |
| --- | --- | --- |
| PIF1, yeast two-hybrid fusion (protein, UniProt Q8GZM7 1-478) MHHFVPDFDTDDDYVNNHNSSLNHLPRKSITTMGEDDDLMELLWQNGQVVVQNQRLHTKKPSSSPPKLLPSMDPQQQPSSDQNLFIQEDEMTSWLHYPLRDDDFCSDLLFSAAPTATATATVSQVTAARPPVSSTNESRPPVRNFMNFSRLRGDFNNGRGGESGPLLSKAVVRESTQVSPSATPSAAASESGLTRRTDGTDSSAVAGGGAYNRKGKAVAMTAPAIEITGTSSSVVSKSEIEPEKTNVDDRKRKEREATTTDETESRSEETKQARVSTTSTKRSRAAEVHNLSERKRRDRINERMKALQELIPRCNKSDKASMLDEAIEYMKSLQLQIQMMSMGCGMMPMMYPGMQQYMPHMAMGMGMNQPIPPPSFMPFPNMLAAQRPLPTQTHMAGSGPQYPVHASDPSRVFVPNQQYDPTSGQPQYPAGYTDPYQQFRGLHPTQPPQFQNQATSYPSSSRVSSSKESEDHGNHTTG | binds |  |
| PIF5, yeast two-hybrid fusion (protein, UniProt Q84LH8 1-444) MEQVFADWNFEDNFHMSTNKRSIRPEDELVELLWRDGQVVLQSQARREPSVQVQTHKQETLRKPNNIFLDNQETVQKPNYAALDDQETVSWIQYPPDDVIDPFESEFSSHFFSSIDHLGGPEKPRTIEETVKHEAQAMAPPKFRSSVITVGPSHCGSNQSTNIHQATTLPVSMSDRSKNVEERLDTSSGGSSGCSYGRNNKETVSGTSVTIDRKRKHVMDADQESVSQSDIGLTSTDDQTMGNKSSQRSGSTRRSRAAEVHNLSERRRRDRINERMKALQELIPHCSRTDKASILDEAIDYLKSLQMQLQVMWMGSGMAAAAAAAASPMMFPGVQSSPYINQMAMQSQMQLSQFPVMNRSAPQNHPGLVCQNPVQLQLQAQNQILSEQLARYMGGIPQMPPAGNQMQTVQQQPADMLGFGSPAGPQSQLSAPATTDSLHMGKIG | binds |  |
| TEOSINTE BRANCHED 1/CYCLOIDEA/PCF 5 (TCP5), yeast two-hybrid fusion (protein, UniProt Q9FME3 1-360) MRSGECDEEEIQAKQERDQNQNHQVNLNHMLQQQQPSSVSSSRQWTSAFRNPRIVRVSRTFGGKDRHSKVCTVRGLRDRRIRLSVPTAIQLYDLQDRLGLSQPSKVIDWLLEAAKDDVDKLPPLQFPHGFNQMYPNLIFGNSGFGESPSSTTSTTFPGTNLGFLENWDLGGSSRTRARLTDTTTTQRESFDLDKGKWIKNDENSNQDHQGFNTNHQQQFPLTNPYNNTSAYYNLGHLQQSLDQSGNNVTVAISNVAANNNNNLNLHPPSSSAGDGSQLFFGPTPPAMSSLFPTYPSFLGASHHHHVVDGAGHLQLFSSNSNTASQQHMMPGNTSLIRPFHHLMSSNHDTDHHSSDNESDS |  | binds |
| TCP13, yeast two-hybrid fusion (protein, UniProt Q9S7W5 1-355) MNIVSWKDANDEVAGGATTRREREVKEDQEETEVRATSGKTVIKKQPTSISSSSSSWMKSKDPRIVRVSRAFGGKDRHSKVCTLRGLRDRRVRLSVPTAIQLYDLQERLGVDQPSKAVDWLLDAAKEEIDELPPLPISPENFSIFNHHQSFLNLGQRPGQDPTQLGFKINGCVQKSTTTSREENDREKGENDVVYTNNHHVGSYGTYHNLEHHHHHHQHLSLQADYHSHQLHSLVPFPSQILVCPMTTSPTTTTIQSLFPSSSSAGSGTMETLDPRQMVSHFQMPLMGNSSSSSSQNISTLYSLLHGSSSNNGGRDIDNRMSSVQFNRTNSTTTANMSRHLGSERCTSRGSDHHM |  | binds |
| TCP17, yeast two-hybrid fusion (protein, UniProt Q9LEZ9 1-242) MGIKKEDQKSSLSLLTQRWNNPRIVRVSRAFGGKDRHSKVCTVRGLRDRRIRLSVMTAIQVYDLQERLGLSQPSKVIDWLLEVAKNDVDLLPPLQFPPGFHQLNPNLTGLGESFPGVFDLGRTQREALDLEKRKWVNLDHVFDHIDHHNHFSNSIQSNKLYFPTITSSSSSYHYNLGHLQQSLLDQSGNVTVAFSNNYNNNNLNPPAAETMSSLFPTRYPSFLGGGQLQLFSSTSSQPDHIE |  | binds |
